In patent publication US12630618 (GEORGIA TECH RESEARCH, dated 2026):
These are yes or no findings as the source states them, for the method shown. Some results given as binding are weak or reduced against the parent protein; the word gives no strength. For part of these data: Tags and fused reporters may be left off the sequences shown. Each block holds one binder with its values, some of them ahead of it.

Tests used:
[1] = biological target: T1, in vitro-prepared aggregate of human myocilin OLF (human) (UniProt Q99972); assay: told in the amyloid aggregation example; the assay behind it is not named there
T1 sequence: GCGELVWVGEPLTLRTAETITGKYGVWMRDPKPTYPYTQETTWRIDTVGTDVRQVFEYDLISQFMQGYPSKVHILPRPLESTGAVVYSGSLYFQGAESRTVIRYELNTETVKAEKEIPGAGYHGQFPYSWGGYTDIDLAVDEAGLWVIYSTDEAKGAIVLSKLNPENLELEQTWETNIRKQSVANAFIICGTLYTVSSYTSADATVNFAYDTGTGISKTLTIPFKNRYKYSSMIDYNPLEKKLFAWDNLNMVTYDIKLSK

[2] = biological target: T2, human myocilin OLF (hMyoc-OLF), cleaved from its fusion tag (human) (UniProt Q99972); assay: Western blot, denatured hMyoc-OLF
T2 sequence: T1 sequence

[3] = biological target: T1, in vitro-prepared aggregate of human myocilin OLF (human); assay: ELISA, aggregate vs fusion-construct monomer
[4] = biological target: T3, myocilin (OLF) from spent human TM cell culture medium (human) (UniProt Q99972); assay: immunoprecipitation from spent human TM medium, IgG, Western blot read-out
T3 sequence: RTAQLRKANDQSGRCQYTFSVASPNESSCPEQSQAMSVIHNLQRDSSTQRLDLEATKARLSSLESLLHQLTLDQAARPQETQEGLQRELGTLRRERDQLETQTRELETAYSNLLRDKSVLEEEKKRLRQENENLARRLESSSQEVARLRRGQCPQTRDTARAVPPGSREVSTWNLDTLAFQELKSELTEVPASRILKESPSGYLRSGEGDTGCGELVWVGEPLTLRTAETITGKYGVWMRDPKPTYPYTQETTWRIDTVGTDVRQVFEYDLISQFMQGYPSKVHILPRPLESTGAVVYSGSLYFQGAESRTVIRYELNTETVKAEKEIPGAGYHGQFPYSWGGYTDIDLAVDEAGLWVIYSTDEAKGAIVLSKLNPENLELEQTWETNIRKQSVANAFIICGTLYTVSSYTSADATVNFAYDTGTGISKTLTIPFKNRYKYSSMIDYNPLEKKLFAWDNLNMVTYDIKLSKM

[5] = biological target: T3, myocilin (OLF) from spent human TM cell culture medium (human); assay: immunoprecipitation from TM cell culture, Western blot read-out

binding [1]: binds
binding [2]: binds
binding [3]: binds
B1: Monoclonal Antibody OLF4 (antibody, V domains shown)
VH: EVMLVESGGGLVKPGGSLKLSCAASGFTFRSYAMSWVRQTPEKRLEWVASISGRGNILYPDSVEGRFTISRDNARNILYLQMSSLRSEDTAMYYCVIYDSGAMDYWGQGTSVTVSS
VL: DIVMTQTPLSLPVSLGDQASISCRSSQSLVHSNGNTYLHWYLQKPGQSPKLLIYKVSNRFSGVPDRFSGSGSGTDFLKISRVEAEDLGLYFCSQTTHVPLTFGAGTKLELKR

binding [4]: binds
binding [5]: binds
binding [3]: binds
B2: Monoclonal Antibody OLF2 (antibody, V domains shown)
VH: DVKLVESGGGLVKPGGSLKLSCAASGFTFSSYAMSWVRQTPDKRLEWVATISSGGSYTYYPDSVKGRFTISRDNAKNTLYLQMSSLKSEDTAMYYCARLGGGIFAYWGQGTLVTVSA
VL: DVLMTQTPLSLPVSLGDQASISCRSSQSIVHSNGNTYLEWYLQKPGQSPKLLIYKVSNRFSGVPDRFSGSGSGTDFTLKISRVEAEDLGVYYCFQGSHVPLTFGAGTKLEIKR
notes: also called anti-OLF2
